Measured values as given in patent US20180072806A1 (SHIRE HUMAN GENETIC THERAPIES, published 2018).
These are yes or no findings as the source states them, for the method shown. Some binding calls cover weakened binding; strength is not graded here.

Amino acid sequences for entries named in this document (tags omitted). A change or cut given only in a name is not applied to a line headed by its entry.
UniProt P17948: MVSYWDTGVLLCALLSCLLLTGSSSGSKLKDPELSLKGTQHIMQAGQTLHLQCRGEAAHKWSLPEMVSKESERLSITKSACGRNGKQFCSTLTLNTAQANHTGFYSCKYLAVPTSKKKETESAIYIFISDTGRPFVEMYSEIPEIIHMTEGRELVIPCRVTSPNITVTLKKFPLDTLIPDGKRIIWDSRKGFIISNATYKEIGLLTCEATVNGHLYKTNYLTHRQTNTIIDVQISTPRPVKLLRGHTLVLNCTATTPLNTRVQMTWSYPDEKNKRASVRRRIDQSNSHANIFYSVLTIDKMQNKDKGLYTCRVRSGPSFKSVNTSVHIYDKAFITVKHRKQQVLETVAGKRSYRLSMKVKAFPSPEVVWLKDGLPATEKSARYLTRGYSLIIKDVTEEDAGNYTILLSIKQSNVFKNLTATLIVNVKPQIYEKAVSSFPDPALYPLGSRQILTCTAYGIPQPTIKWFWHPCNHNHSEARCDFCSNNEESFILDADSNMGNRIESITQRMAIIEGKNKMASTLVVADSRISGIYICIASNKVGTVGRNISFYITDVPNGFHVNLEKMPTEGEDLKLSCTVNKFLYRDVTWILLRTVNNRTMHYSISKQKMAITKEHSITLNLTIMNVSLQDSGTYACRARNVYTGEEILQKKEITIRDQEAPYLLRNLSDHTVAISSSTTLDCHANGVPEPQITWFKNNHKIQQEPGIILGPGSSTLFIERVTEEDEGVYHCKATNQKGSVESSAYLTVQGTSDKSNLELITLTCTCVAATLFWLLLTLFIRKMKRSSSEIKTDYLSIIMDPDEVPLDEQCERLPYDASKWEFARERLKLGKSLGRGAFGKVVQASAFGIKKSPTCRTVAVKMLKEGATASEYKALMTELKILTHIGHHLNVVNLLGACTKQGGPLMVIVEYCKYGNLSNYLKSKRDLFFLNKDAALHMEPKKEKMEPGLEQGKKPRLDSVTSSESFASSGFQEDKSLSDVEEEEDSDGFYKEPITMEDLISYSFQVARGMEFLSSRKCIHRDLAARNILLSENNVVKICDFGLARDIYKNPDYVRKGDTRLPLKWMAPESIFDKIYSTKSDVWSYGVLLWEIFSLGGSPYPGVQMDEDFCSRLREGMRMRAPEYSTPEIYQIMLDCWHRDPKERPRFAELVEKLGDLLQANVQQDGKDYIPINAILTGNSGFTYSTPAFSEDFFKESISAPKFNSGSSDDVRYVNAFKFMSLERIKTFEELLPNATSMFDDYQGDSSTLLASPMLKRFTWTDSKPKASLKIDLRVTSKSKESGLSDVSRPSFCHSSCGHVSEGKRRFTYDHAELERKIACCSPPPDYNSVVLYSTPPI

Tests used:
[1] = target: T1, recombinant human soluble Flt-1 (human, UniProt P17948 27-758); assay: size exclusion chromatography of the mixture
T1 construct: Recombinant soluble form (immunogen bought from ABCAM); also called human sFlt-1; sFlt-1

[2] = target: T1, recombinant human soluble Flt-1; assay: human competition ELISA with human sFlt-1 and VEGF; blocked ligand VEGF; antibody titrated
[3] = target: T1, recombinant human soluble Flt-1; assay: VEGF:sFlt1 binding assay (competition ELISA); blocked ligand VEGF; antibody titrated

binding [1]	binding [2]	binding [3]	Binder
–	–	binds	anti-Flt-1 antibody 27H6 (antibody, human IgG1, lambda, V domains shown) VH: ELQLVESGGGLVQPGGSLRLSCAASGFTFSDYSASWVRQAPGKGLEWVSAISWSGDSTYYAESVKGRFTIFRDNSKNTLYLQMNSLRAEDTAVYYCAKSWATPIESLYYYGSDYWGQGTLVTVSS VL: SYELTQPLSVSVALRQAAKITCGGNNIGSQTAQWYQQKPGQAPVLVIYANNRRPSGIPERFSGSKSGNTATLTISRAQAGDEADYYCQVWDGSTQAIVFGGGTKLTVLG
–	–	binds	anti-Flt-1 antibody 27H4 (antibody, human IgG1, lambda, V domains shown) VH: ELQLVESGGGLVQPGGSLRLSCAASGFTFRDYSMSWVRQAPGKGLEWVSAISWNGDSTYYAESLKGRFTISRDNAKNTLYLQMNSLRAEDTAVYYCAKSWATPIESLYYYGSDYWGQGTLVTVSS VL: SYELTQPLSVSVALGQTARITCGGNNIGSQTAQWYQQKPGQAPVLVIYANNRRPSGIPERFSGSKSGNTATLTISRAQAEDEADYYCQVWEDSTQAIVFGGGTKLTVLG

Continued, binder first:

Binder	binding [1]	binding [2]	binding [3]
anti-Flt-1 antibody 21B3 (antibody, V domains shown, VL is LC_21B3; IgG with wild-type Fc; also called 21B3 WT; clone 21B3) VH: ELQLVESGGGLVQPGGSLRLSCAASGFTFRDYSMSWVRQAPGKGLEWVSAISWNGDSTYYAESMKGRFTISRDNAKNTLYLQMNSLKSEDTAVYYCAKSWATPIESLYYYGMDYWGKGTLVTVSS VL: SYELTQSPSVSVALRQTAKITCGGNNIGSQTAQWYQQKPGQAPVLVIYANNRRPSGIPERFSGSKSGNTATLTISGAQAEDEADYYCQVWDGSTQAIVFGGGTHLTVL	binds	binds	–
anti-Flt-1 antibody 27H9 (antibody, human IgG1, lambda, V domains shown, also called 27H9 WT; 27H9 WT 23/07) VH: EVQLLESGGGLVQPGGSLRLSCAASGFTFRDYSMSWVRQAPGKGLEWVSAISWNGDSTYYAESAKGRFTISRDNSKNTLYLQMNSLRAEDTAVYYCAKSWATPIESLYYYGSDYWGQGTLVTVSS VL: SYELTQPLSVSVALRQTARITCGGNNIGSQTAQWYQQKPGQAPVLVIYANNRRPSGIPERFSGSKSGNTATLTISRAQAEDEADYYCQVWDESTQAIVFGGGTKLTVLG	–	–	binds
